The target in test [1] is His6-MBP-DHFR (UniProt P00374). The test can be described thus: co-purification on an affinity (IMAC) column; His6-MBP proteins purified under native conditions from E. coli on an IMAC column; co-purified endogenous GroEL detected by Western blot with anti-GroEL antibody and SDS-PAGE. (In general: A western blot detects proteins with antibodies after separation by electrophoresis.)

Protein sequences, listed by entry. Tags and fused reporters are not part of them.
UniProt P00374: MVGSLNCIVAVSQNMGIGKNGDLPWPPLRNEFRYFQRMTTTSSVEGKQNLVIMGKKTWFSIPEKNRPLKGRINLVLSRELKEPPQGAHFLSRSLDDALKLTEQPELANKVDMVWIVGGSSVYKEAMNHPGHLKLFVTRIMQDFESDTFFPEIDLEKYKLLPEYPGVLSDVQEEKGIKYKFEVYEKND
UniProt P16858: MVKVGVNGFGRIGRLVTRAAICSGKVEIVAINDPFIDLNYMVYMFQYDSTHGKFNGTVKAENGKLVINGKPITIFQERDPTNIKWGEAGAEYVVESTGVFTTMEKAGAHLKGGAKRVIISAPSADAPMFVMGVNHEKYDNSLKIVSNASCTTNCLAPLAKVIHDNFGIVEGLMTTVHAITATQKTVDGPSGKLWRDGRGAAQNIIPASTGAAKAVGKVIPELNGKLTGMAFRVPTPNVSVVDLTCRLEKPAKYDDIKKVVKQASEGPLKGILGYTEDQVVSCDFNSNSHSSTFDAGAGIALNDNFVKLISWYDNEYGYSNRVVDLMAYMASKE
UniProt P0A6F5: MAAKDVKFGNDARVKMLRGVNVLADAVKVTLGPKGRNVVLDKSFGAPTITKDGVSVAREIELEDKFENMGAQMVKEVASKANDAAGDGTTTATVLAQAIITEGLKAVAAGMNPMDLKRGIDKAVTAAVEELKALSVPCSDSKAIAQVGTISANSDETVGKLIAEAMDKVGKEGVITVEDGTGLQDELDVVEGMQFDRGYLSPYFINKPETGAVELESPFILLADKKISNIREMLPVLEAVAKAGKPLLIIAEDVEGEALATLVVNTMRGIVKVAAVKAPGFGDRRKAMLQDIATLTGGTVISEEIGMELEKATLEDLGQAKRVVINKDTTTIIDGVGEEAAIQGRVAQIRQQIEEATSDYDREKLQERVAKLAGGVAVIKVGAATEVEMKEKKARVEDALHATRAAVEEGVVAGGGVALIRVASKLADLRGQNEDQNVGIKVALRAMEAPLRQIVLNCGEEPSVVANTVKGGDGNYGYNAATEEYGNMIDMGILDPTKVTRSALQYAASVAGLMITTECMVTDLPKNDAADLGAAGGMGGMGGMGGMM

Test [2] deals with His6-MBP-G3PDH (UniProt P16858). Described as above.

These are yes or no findings as the source states them, for the method shown. Some entries that bind do so weakly or less than the wild type.

Consider GroEL (from UniProt P0A6F5 1-548), for which the binding entry in test [1] and in test [2] was “binds” in each case.

Source of the values: paper PMC3500312.
